These are yes or no findings as the source states them, for the method shown. Binding seen in cells or lysates may run through a third protein. Some results given as binding are weak or reduced against the parent protein; the word gives no strength.

For assay [1], the target named is T1, FAS-associated death domain protein (mouse (endogenous in MEFs)), Q61160.
T1 chain: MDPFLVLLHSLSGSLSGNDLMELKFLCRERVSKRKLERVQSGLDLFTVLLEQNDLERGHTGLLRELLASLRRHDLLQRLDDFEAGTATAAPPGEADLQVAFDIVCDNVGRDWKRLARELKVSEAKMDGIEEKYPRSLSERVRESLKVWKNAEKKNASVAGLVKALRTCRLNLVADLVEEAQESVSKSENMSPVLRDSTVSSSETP
Briefly: co-IP; anti-FADD antibody on G-Sepharose beads, lysates of immortalized Mlkl-/- MEFs pretreated with or without DMXAA overnight, then TNF (100 ng/ml), Z-VAD-FMK (20 uM) and BV6 (2 uM) for 48 h; overnight at 4 °C; washes with 150 mM NaCl, Tris-HCl pH 7.4, 5% glycerol, 0.5% Triton X-100; immunoblot. The following applies: remark: other sources report otherwise. (Immunoblotting shows a protein as a band on a membrane.)

Assay [2] has as its target T2, Z-DNA-binding protein 1 (mouse (endogenous in MEFs)), Q9QY24.
T2 chain: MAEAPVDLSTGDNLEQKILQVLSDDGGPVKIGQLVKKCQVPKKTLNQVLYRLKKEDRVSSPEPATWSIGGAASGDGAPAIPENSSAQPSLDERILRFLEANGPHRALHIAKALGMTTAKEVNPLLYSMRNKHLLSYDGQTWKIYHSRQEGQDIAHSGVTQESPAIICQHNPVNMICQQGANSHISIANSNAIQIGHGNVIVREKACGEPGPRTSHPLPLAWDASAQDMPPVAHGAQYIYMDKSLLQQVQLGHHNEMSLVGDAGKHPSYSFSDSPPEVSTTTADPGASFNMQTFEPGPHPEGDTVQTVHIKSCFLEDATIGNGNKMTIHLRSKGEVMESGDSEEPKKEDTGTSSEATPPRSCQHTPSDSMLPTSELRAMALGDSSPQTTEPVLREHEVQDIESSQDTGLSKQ
Nature of the assay: co-IP; anti-ZBP1 antibody on G-Sepharose beads, lysates of immortalized Mlkl-/-, Fadd-/-Mlkl-/- and Casp8-/-Mlkl-/- MEFs, basal or treated with DMXAA, C-178, TNF, Z-VAD-FMK and BV6 for 48 h; overnight at 4 °C; washes with 150 mM NaCl, Tris-HCl pH 7.4, 5% glycerol, 0.5% Triton X-100; immunoblot. The following applies: remark: other sources report otherwise.

B1: receptor-interacting serine/threonine-protein kinase 3, Q9QZL0 1-486 (protein)
chain: MSSVKLWPTGASAVPLVSREELKKLEFVGKGGFGVVFRAHHRTWNHDVAVKIVNSKKISWEVKAMVNLRNENVLLLLGVTEDLQWDFVSGQALVTRFMENGSLAGLLQPECPRPWPLLCRLLQEVVLGMCYLHSLNPPLLHRDLKPSNILLDPELHAKLADFGLSTFQGGSQSGSGSGSGSRDSGGTLAYLDPELLFDVNLKASKASDVYSFGILVWAVLAGREAELVDKTSLIRETVCDRQSRPPLTELPPGSPETPGLEKLKELMIHCWGSQSENRPSFQDCEPKTNEVYNLVKDKVDAAVSEVKHYLSQHRSSGRNLSAREPSQRGTEMDCPRETMVSKMLDRLHLEEPSGPVPGKCPERQAQDTSVGPATPARTSSDPVAGTPQIPHTLPFRGTTPGPVFTETPGPHPQRNQGDGRHGTPWYPWTPPNPMTGPPALVFNNCSEVQIGNYNSLVAPPRTTASSSAKYDQAQFGRGRGWQPFHK
With B1, in assay [1], the binding result is on record as “binds”.

B2: receptor-interacting serine/threonine-protein kinase 1, Q60855 1-656 (protein)
chain: MQPDMSLDNIKMASSDLLEKTDLDSGGFGKVSLCYHRSHGFVILKKVYTGPNRAEYNEVLLEEGKMMHRLRHSRVVKLLGIIIEEGNYSLVMEYMEKGNLMHVLKTQIDVPLSLKGRIIVEAIEGMCYLHDKGVIHKDLKPENILVDRDFHIKIADLGVASFKTWSKLTKEKDNKQKEVSSTTKKNNGGTLYYMAPEHLNDINAKPTEKSDVYSFGIVLWAIFAKKEPYENVICTEQFVICIKSGNRPNVEEILEYCPREIISLMERCWQAIPEDRPTFLGIEEEFRPFYLSHFEEYVEEDVASLKKEYPDQSPVLQRMFSLQHDCVPLPPSRSNSEQPGSLHSSQGLQMGPVEESWFSSSPEYPQDENDRSVQAKLQEEASYHAFGIFAEKQTKPQPRQNEAYNREEERKRRVSHDPFAQQRARENIKSAGARGHSDPSTTSRGIAVQQLSWPATQTVWNNGLYNQHGFGTTGTGVWYPPNLSQMYSTYKTPVPETNIPGSTPTMPYFSGPVADDLIKYTIFNSSGIQIGNHNYMDVGLNSQPPNNTCKEESTSRHQAIFDNTTSLTDEHLNPIRENLGRQWKNCARKLGFTESQIDEIDHDYERDGLKEKVYQMLQKWLMREGTKGATVGKLAQALHQCCRIDLLNHLIRASQS
For B2, the binding result in assay [2] is listed as “binds”.

(Values after PMC12629989.)
